Test [1] deals with myc-tagged CUL4A (UniProt Q13619). Kind of test: co-IP.
Test [2] concerns the target DDB1 (plasmid-transfected cells) (UniProt Q16531). Put plainly: co-IP.

Chains of the proteins cited; added tags and fusions are not shown.
UniProt Q13619: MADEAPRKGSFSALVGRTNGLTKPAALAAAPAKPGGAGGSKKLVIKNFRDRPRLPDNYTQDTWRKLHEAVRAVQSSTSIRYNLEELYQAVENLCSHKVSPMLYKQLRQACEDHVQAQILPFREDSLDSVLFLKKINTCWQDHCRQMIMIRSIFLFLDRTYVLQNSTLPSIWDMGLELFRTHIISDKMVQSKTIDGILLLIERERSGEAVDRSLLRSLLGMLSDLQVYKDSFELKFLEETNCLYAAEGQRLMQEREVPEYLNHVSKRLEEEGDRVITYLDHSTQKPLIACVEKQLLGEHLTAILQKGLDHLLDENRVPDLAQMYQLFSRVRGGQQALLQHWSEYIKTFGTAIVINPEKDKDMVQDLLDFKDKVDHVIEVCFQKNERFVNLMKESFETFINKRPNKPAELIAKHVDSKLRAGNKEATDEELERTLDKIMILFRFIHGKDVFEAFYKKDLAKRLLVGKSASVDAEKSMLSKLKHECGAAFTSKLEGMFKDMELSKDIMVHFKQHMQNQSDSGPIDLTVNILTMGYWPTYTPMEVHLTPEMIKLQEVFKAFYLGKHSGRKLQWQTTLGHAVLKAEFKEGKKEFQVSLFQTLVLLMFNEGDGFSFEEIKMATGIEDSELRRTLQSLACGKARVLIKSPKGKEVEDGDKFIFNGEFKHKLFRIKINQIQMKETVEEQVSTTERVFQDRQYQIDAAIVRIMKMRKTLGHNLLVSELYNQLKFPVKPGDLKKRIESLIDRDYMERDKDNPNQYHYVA
UniProt Q16531: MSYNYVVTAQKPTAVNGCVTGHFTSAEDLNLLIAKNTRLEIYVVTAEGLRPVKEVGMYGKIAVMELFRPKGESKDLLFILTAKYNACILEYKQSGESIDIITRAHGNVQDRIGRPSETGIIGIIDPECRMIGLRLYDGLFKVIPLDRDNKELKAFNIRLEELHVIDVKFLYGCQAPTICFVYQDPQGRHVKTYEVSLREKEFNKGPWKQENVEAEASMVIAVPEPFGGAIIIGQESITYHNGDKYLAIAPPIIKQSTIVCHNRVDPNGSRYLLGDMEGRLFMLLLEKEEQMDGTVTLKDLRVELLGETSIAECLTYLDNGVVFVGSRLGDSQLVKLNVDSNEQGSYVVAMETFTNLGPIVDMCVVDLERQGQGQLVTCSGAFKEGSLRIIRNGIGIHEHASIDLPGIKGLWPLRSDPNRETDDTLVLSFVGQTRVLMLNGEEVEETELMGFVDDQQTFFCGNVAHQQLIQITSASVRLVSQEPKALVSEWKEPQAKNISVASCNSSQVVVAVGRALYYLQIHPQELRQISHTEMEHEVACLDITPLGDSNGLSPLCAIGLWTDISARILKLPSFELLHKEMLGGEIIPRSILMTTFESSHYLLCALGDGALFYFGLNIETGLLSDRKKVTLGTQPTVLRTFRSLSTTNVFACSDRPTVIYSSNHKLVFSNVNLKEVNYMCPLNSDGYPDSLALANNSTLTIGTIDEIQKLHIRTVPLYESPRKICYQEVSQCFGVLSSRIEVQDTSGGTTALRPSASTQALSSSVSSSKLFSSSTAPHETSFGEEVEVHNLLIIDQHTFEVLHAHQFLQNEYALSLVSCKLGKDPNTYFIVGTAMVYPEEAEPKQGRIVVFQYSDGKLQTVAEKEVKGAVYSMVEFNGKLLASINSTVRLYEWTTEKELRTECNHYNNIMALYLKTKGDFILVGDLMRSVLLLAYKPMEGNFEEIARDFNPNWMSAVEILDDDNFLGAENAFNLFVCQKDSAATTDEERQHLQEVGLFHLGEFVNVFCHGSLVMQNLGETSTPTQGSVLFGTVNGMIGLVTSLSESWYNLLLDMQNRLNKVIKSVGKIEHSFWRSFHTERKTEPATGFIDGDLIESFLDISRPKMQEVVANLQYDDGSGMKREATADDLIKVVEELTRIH

No constants are given. Whether binding was seen depends on the method and setting. In cells and extracts the contact can be indirect. Some results given as binding are weak or reduced against the parent protein; the word gives no strength.

We go through three substances from PMC7226812.

“2HA-tagged DCAF8 (from UniProt Q5TAQ9-1 1-597)”: the binding result in test [1] and in test [2] was “binds” each time.
In the case of “2HA-tagged DCAF11 (from UniProt Q8TEB1-1 1-546)”, the binding result in test [1] and in test [2] was “binds” in each case.
For the substance “2HA-tagged cereblon (from UniProt Q96SW2-1 1-442)”, the binding result in test [1] is given as “binds”.
